Assay results reported in publication doi:10.1101/2025.09.04.674312.

Target: Flag-IPADP1 (IPA-derived protein 1) (human)
Experiment: affinity purification with mass spectrometry

B1: MSH4 (protein, UniProt O15457 1-936)
chain: MLRPEISSTSPSAPAVSPSSGETRSPQGPRYNFGLQETPQSRPSVQVVSASTCPGTSGAAGDRSSSSSSLPCPAPNSRPAQGSYFGNKRAYAENTVASNFTFGASSSSARDTNYPQTLKTPLSTGNPQRSGYKSWTPQVGYSASSSSAISAHSPSVIVAVVEGRGLARGEIGMASIDLKNPQIILSQFADNTTYAKVITKLKILSPLEIIMSNTACAVGNSTKLFTLITENFKNVNFTTIQRKYFNETKGLEYIEQLCIAEFSTVLMEVQSKYYCLAAVAALLKYVEFIQNSVYAPKSLKICFQGSEQTAMIDSSSAQNLELLINNQDYRNNHTLFGVLNYTKTPGGSRRLRSNILEPLVDIETINMRLDCVQELLQDEELFFGLQSVISRFLDTEQLLSVLVQIPKQDTVNAAESKITNLIYLKHTLELVDPLKIAMKNCNTPLLRAYYGSLEDKRFGIILEKIKTVINDDARYMKGCLNMRTQKCYAVRSNINEFLDIARRTYTEIVDDIAGMISQLGEKYSLPLRTSFSSARGFFIQMTTDCIALPSDQLPSEFIKISKVKNSYSFTSADLIKMNERCQESLREIYHMTYMIVCKLLSEIYEHIHCLYKLSDTVSMLDMLLSFAHACTLSDYVRPEFTDTLAIKQGWHPILEKISAEKPIANNTYVTEGSNFLIITGPNMSGKSTYLKQIALCQIMAQIGSYVPAEYSSFRIAKQIFTRISTDDDIETNSSTFMKEMKEIAYILHNANDKSLILIDELGRGTNTEEGIGICYAVCEYLLSLKAFTLFATHFLELCHIDALYPNVENMHFEVQHVKNTSRNKEAILYTYKLSKGLTEEKNYGLKAAEVSSLPPSIVLDAKEITTQITRQILQNQRSTPEMERQRAVYHLATRLVQTARNSQLDPDSLRIYLSNLKKKYKEDFPRTEQVPEKTEE
With B1 as the binder, how does the binding read?
Its binding is “binds”.

Results are given in words; binding and its absence hold for the method and conditions named. In cells and extracts the contact can be indirect. Here binding means that the protein was enriched with, or labelled near, the bait; the list need not be complete.
